From US9360471B2, “Anti-aging agents and methods to identify them” (priority 2009, dated 2016)
At least one compound was matched to its structure with a doubt left.

Legend:
cdc17-1 = assay: cell survival in cdc17-1 yeast mutant, colony formation assay; type: cell-based; conditions: rapamycin 1 and 3 nM, about 37° C. 22 hrs
[1] = tested on: cdc13-1snf1::Kan and cdc13-1snf4::Kan double mutant strains; assay: cell survival in cdc13-1 AMPK subunit deletion double mutants, colony formation assay; type: cell-based, budding yeast; conditions: rapamycin 1 nM
[2] = tested on: mitochondria deficient mutant ρ^o in cdc13-1; assay: cell survival in mitochondria deficient cdc13-1, colony formation assay; type: cell-based, budding yeast; conditions: rapamycin at 1 nM and 5 nM
cdc13-1 = assay: yeast mitochondrial mass, MitoTracker Green FM and FACS; type: cell-based, budding yeast; conditions: rapamycin 1 nM, 24° C. 4 hrs to log phase
est1^−ts yeast cells = conditions: cells grown on rapamycin-containing plates; previous paper (Qi 2008); cited from earlier work
cdc17-2 = assay: cell survival in cdc17-2 yeast mutant, colony formation assay; type: cell-based; conditions: rapamycin 1 and 3 nM, about 37° C. 22 hrs

CO[C@H]1C[C@@H]2CC[C@@H](C)[C@@](O)(O2)C(=O)C(=O)N2CCCC[C@H]2C(=O)O[C@H]([C@H](C)C[C@@H]2CC[C@@H](O)[C@H](OC)C2)CC(=O)[C@H](C)/C=C(\C)[C@@H](O)[C@@H](OC)C(=O)[C@H](C)C[C@H](C)/C=C/C=C/C=C/1C [rapamycin]
cell death induced by inactivation of DNA polymerase-alpha (colony formation) (cdc17-1): prevented cell induced by inactivation of DNA polymerase-alpha | preventive effect on cdc13-1 cell death after deletion of Snf1p and Snf4p [1]: greatly reduced the preventive effect | preventive effect on cdc13-1 cell death under mitochondria deficiency [2]: significantly abolished the preventive effect | mitochondrial mass (cdc13-1): increase of mitochondrial mass | ROS induction and apoptotic-like cell death induced by inactivation of telomerase (est1^−ts yeast cells): can prevent ROS induction and apoptotic-like cell death | cell death induced by inactivation of DNA polymerase-alpha (colony formation) (cdc17-2): prevented cell induced by inactivation of DNA polymerase-alpha
